What is called Papp is a coefficient for how fast a substance crosses the barrier.

Where two headings read alike, the source gives them in different places.

Papp data for one compound are collected here from publication PMC6155746 (Molecules : A Journal of Synthetic Chemistry and Natural …, 2017).

A short description of the series: Permeability assay, everted rat gut model. Type of series: in vitro ADME, Wistar rats. Particulars: male, Wistar, 37 °C, A-B. How it is done:
Male Wistar rats weighing 200–250 g were used in this research. Everted intestinal sacs were prepared by quickly removing the small intestine from starved rats killed under ether anesthesia. All experiments were carried out after pre-incubation at 37 ± 0.5 °C, with the duodenum and jejunum then excised, flushed-through several times with saline solution at room temperature, and placed immediately into simulated intestinal fluid (SIF). The intestine was gently everted over a steel rod and filled with fresh SIF. The sacs were preincubated in oxygenated buffer solution for 5 min and then placed in 100 mL of oxygenated SIF solution containing 0.0001 M (100 μM) of Compound 1 at 37 °C. Oxygen was bubbled with a pump to maintain viable tissue.
The everted intestinal sac was filled with 1.5 mL of SIF solution, while a test compound solution (0.0001 M) remained external to the everted sac. […] Both an initial and final sample of the outside solution were analyzed by HPLC.
The apparent intestinal permeability (Papp) was calculated according to Equation (2): (2) Papp=V/(A∗Co)dC/dt where Papp = Apparent Permeability (cm/s), V = Intestinal Volume (mL), A = Surface Area (cm^2), dC/dt = Concentration Gradient, and, Co = Initial Concentration (μg/mL).

On to `COc1ccc2cc([C@H](C)C(=O)O)ccc2c1` [Naproxen, naproxen], for which the Papp at 120 min, 100 μM by setting is: (duodenum, read-out: Papp Duodenum) 302 nm/s; (jejunum, read-out: Papp Jejunum) 398 nm/s.
